These are yes or no findings as the source states them, for the method shown. In cells and extracts the contact can be indirect. A yes stands for co-enrichment or nearness to the bait. Other partners may have been found.
T1: DPS-Like protein (DPSL) from Sulfolobus solfataricus, purified recombinant dodecameric DPSL (Sulfolobus solfataricus) (UniProt P95855)
T1 sequence: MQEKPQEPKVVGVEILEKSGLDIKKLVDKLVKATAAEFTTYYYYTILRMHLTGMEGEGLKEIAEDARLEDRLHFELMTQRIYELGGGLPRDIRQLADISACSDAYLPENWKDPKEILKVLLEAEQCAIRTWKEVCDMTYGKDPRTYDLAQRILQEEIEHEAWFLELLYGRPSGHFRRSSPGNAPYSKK


Target: T1, DPS-Like protein (DPSL) from Sulfolobus solfataricus, purified recombinant dodecameric DPSL (Sulfolobus solfataricus)
Test: affinity purification with mass spectrometry; recombinant DPSL coupled to AminoLink Plus agarose beads, mixed with S. solfataricus total cell lysate with protease inhibitors for 2 hrs at 4°C; washed three times with 50 mM MES pH 7.2, 100 mM NaCl, 0.3% NP-40, 2 mM EDTA; eluted with glycine pH 2.5/2.6 or digested with trypsin on the beads; LC-MS/MS; mock agarose beads as control; three replicates; only the target purified

Row | binding | Binder
1 | binds | Peroxiredoxin, bacterioferritin comigratory protein homolog (bcp-2) of Sulfolobus solfataricus (enzyme, UniProt P95895 1-215) MSEERIPLIGERFPEMEVITTQGRIKLPDDYKGRWFVLFSHPGDFTPVCTTEFYSFAKKYEEFKKLNTELIGLSVDSNISHIEWIMWIEKNLKVEIPFPIIADPMGNVAKRLGMIHAQSSTATVRAVFVVDDKGVVRLILYYPMEIGRNIDEILRAIRALQLVDKAGVVTPANWPNNELIGDKVINPAPRTIKDAKMRLGQPFDWWFTYKEVKTT
2 | binds | Superoxide dismutase [Fe] (sod) of Sulfolobus solfataricus (enzyme, UniProt P80857 1-211) MTLQIQFKKYELPPLPYKIDALEPYISKDIIDVHYNGHHKGYVNGANSLLERLEKVVKGDLQTGQYDIQGIIRGLTFNINGHKLHALYWENMAPSGKGGGKPGGALADLINKQYGSFDRFKQVFTETANSLPGTGWAVLYYDTESGNLQIMTFENHFQNHIAEIPIILILDEFEHAYYLQYKNKRADYVNAWWNVVNWDAAEKKLQKYLTK
